Assay results taken from ChEMBL document CHEMBL3436045 (Sci Rep, 2013).

Protein sequences, listed by entry. Tags and fused reporters are not part of them. Lines headed by an entry give the natural chain unless they say otherwise; changes in a name come on top.
UniProt Q13698: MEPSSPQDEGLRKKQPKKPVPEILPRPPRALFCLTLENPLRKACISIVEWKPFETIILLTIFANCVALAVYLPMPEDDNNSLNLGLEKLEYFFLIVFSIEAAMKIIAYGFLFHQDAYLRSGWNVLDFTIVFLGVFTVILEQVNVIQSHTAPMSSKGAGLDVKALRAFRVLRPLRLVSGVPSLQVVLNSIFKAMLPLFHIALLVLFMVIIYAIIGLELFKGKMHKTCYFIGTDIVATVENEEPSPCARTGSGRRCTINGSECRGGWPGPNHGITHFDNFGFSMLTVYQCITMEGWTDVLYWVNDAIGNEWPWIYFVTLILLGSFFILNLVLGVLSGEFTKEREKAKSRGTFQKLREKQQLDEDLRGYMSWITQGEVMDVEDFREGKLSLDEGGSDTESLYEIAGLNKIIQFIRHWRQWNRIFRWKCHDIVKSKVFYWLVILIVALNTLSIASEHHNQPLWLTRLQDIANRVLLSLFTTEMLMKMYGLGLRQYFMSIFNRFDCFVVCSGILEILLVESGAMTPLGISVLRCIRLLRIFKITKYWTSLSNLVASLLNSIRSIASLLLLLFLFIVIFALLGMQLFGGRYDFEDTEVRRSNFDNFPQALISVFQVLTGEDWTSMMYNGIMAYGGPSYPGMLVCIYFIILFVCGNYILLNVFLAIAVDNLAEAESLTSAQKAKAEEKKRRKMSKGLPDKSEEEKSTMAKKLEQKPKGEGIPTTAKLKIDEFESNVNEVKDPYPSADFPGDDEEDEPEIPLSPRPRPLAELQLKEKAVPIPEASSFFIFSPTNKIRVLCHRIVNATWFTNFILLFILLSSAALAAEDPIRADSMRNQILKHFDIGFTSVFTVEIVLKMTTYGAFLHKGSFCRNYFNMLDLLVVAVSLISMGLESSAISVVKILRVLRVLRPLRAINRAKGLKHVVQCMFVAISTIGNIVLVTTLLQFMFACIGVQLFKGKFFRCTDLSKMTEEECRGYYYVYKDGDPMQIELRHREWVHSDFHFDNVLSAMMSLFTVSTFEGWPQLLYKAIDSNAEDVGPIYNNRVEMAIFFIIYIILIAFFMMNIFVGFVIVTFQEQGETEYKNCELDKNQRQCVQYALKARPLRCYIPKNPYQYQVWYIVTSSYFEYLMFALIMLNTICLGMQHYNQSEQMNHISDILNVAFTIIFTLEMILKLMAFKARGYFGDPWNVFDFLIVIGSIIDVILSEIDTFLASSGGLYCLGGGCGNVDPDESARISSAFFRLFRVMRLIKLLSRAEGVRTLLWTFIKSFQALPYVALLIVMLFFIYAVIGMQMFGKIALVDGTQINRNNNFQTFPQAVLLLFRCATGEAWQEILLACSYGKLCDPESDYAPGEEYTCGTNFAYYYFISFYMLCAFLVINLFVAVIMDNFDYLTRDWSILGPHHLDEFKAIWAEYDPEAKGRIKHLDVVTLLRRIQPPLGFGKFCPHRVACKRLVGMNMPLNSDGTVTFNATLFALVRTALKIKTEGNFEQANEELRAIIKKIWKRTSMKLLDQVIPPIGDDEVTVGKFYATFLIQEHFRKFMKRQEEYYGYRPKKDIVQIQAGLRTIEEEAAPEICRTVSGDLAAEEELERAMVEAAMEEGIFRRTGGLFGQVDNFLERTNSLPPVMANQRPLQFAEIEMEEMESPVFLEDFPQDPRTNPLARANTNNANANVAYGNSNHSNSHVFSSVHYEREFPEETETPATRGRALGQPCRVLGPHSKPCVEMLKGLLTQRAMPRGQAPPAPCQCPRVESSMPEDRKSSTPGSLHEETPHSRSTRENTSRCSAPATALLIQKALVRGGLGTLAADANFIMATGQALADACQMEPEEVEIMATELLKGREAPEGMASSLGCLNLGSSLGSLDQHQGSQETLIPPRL
UniProt Q01668: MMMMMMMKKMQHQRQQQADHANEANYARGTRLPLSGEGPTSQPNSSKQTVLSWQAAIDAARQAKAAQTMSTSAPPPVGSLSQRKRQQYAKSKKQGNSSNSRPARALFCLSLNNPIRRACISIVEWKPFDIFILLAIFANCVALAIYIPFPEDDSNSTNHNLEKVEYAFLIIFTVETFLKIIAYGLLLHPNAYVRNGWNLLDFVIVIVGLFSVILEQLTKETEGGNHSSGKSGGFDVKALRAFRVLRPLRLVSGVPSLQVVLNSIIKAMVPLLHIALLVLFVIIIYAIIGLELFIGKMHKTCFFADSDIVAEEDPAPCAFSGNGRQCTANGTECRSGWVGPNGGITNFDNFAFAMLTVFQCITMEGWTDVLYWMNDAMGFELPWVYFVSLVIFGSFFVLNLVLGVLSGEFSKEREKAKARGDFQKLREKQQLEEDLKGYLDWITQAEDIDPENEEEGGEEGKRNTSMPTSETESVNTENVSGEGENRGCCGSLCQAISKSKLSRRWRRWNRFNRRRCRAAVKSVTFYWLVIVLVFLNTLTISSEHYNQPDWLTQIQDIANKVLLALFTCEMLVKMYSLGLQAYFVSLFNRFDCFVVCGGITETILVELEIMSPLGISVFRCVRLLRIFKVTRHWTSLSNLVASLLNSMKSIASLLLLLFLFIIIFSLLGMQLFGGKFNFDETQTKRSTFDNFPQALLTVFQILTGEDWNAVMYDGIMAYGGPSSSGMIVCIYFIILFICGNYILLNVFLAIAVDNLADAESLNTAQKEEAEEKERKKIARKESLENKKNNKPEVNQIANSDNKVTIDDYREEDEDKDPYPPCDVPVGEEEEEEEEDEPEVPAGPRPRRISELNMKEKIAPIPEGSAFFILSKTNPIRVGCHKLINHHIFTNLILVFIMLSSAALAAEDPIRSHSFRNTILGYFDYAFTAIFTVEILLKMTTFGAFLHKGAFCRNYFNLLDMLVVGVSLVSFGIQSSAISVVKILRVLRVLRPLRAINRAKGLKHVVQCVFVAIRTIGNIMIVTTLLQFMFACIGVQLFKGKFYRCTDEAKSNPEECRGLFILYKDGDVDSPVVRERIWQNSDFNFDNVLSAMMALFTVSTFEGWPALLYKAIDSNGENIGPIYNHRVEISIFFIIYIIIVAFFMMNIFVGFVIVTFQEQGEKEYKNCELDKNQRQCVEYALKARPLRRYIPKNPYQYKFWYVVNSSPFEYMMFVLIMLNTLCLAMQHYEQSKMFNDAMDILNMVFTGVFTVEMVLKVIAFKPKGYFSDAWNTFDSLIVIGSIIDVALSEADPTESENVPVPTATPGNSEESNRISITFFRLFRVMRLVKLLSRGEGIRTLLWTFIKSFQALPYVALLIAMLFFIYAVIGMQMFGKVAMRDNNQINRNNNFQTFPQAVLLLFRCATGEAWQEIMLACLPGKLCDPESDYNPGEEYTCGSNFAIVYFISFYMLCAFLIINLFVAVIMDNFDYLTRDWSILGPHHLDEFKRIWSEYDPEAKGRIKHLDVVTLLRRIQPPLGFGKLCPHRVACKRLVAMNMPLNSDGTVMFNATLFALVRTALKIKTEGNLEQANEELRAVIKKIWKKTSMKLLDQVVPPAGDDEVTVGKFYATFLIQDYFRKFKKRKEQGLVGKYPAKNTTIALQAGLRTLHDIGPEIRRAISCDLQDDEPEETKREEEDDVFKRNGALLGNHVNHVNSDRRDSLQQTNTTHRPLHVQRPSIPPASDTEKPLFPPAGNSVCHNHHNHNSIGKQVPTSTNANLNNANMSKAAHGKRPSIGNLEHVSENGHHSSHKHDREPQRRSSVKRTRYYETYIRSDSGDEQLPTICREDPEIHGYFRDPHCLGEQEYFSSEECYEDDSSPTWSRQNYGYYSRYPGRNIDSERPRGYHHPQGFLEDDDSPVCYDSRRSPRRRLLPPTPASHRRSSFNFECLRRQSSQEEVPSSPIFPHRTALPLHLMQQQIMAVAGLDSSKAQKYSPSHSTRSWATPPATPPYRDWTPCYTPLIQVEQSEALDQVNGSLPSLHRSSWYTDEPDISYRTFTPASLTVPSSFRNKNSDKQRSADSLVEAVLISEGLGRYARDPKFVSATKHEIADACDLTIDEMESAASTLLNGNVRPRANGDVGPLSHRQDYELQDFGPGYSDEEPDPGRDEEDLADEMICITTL
UniProt O60840: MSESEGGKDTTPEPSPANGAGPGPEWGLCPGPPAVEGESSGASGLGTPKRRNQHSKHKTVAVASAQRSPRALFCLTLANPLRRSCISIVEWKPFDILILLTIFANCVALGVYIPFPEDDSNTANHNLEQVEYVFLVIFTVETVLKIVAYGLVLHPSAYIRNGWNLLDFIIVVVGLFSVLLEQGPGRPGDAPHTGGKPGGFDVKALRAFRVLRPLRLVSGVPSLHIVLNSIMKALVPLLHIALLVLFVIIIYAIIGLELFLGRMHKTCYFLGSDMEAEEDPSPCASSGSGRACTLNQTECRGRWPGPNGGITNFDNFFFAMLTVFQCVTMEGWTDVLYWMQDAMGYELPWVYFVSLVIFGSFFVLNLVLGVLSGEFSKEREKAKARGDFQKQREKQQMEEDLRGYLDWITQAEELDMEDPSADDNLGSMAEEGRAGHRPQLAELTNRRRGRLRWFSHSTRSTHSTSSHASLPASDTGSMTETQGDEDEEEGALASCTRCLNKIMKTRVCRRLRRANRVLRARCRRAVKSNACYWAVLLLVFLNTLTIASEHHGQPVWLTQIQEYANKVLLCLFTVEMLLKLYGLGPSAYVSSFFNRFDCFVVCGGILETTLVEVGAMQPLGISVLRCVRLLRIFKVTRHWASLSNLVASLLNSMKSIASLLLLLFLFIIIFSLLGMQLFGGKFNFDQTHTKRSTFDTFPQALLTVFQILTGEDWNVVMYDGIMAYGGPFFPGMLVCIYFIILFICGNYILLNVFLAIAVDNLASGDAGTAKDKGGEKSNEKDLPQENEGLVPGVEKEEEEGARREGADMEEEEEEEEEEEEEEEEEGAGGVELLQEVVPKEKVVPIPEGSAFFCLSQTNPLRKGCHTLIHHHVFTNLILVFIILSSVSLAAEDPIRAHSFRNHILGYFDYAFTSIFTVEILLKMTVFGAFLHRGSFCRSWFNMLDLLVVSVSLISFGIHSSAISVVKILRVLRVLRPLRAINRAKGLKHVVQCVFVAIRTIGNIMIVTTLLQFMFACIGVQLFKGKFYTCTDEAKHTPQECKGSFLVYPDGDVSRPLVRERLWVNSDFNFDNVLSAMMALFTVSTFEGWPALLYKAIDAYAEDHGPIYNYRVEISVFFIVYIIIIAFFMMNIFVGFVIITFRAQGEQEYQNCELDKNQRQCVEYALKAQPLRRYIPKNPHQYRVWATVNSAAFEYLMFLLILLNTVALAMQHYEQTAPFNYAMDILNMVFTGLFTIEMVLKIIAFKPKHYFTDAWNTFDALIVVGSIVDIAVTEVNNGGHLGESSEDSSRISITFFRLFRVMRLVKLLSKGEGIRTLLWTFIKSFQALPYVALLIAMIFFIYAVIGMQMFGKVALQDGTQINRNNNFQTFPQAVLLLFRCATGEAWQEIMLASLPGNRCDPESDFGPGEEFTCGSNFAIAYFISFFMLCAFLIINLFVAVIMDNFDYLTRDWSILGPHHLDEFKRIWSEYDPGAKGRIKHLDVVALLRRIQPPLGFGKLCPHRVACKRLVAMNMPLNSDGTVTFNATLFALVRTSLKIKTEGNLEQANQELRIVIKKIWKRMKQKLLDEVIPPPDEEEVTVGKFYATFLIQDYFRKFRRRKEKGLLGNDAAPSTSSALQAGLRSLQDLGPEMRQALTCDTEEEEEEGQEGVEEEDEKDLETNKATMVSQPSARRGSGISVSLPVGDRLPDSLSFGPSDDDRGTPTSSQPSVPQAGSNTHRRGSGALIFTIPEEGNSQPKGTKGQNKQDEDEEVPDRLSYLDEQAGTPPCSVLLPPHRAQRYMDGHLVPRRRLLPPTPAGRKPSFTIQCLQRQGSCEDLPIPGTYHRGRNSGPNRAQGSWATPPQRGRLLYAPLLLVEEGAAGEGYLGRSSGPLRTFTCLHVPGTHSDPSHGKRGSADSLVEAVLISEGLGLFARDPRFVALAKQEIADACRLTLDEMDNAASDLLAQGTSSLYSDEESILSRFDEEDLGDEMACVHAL

Molecular target: Voltage-gated L-type calcium channel (Homo sapiens, UniProt Q13936+Q13698+Q01668+O60840)
Assay: Inhibition of Cav1.2 current measured using QPatch automatic path clamp system in CHO cells expressing Cav1.2, beta-2 and alpha-2/delta-1 subunits
Type: functional, cell-based, Cricetulus griseus
Set-up: ca sol conc 1.8 mM, temp Ambient

## COc1cc2c(cc1OC)C(=O)C(CC1CCN(Cc3ccccc3)CC1)C2 (stereo unspecified) [DONEPEZIL]
  IC50: 34.3 µM
